According to the supplement of paper PMC12578635:
The list shows a part of the results. Rule as the data show it: active = 150% or more and inactive = the rest. Most values come without repeats; read them as rough.

System: Staphylococcus aureus JE2-lux inside RAW 264.7 macrophages
Assay: intracellular bacterial bioluminescence relative to DMSO vehicle; higher = higher intracellular bacterial metabolic activity
Settings: 10 µM; treatment time 4 h; gentamicin 50 µg/ml

Intracellular bacterial bioluminescence, inactive:
C=CCOc1ccccc1NC(=O)c1cc2ncc(C(C)=O)c(C)n2n1 127%, COC(=O)c1ccc(NC(=O)CSc2nc3c([nH]2)c(=O)n(C)c(=O)n3C)cc1 101%, CCc1ccc(NS(=O)(=O)c2[nH]nc(C)c2C(=O)n2nc(C)cc2C)cc1 112%, O=C(Nn1cnc2c(cnn2-c2cccc(Cl)c2)c1=O)c1ccccc1C(F)(F)F 117%, C=CCOc1ccccc1NC(=O)c1cnc(C(C)(C)C)nc1 90.8%, Nc1c(C(=O)Nc2ccc(Oc3ccccc3)cc2)sc2nc3c(cc12)C(=O)CCC3 107%, COc1ccc(C2C(C#N)=C(N)SC3C(=O)N(c4ccc(C)cc4)C(=O)C32)cc1 (stereo not given) 116%, Cc1csc(SCc2cc(=O)c(OC(=O)c3cc4ccccc4o3)co2)n1 95.1%, COc1cccc2cc(C(=O)C3=C(O)C(=O)N(CCCN(C)C)C3c3cccnc3)oc12 (stereo not given) 92.9%, Cc1c(C)n2c(SCC(=O)N3CCc4ccccc43)nnc2[nH]c1=O 104%, COCCCNc1oc(-c2ccc([N+](=O)[O-])cc2)nc1C#N 105%, COc1ccc(CN(Cc2nc3ccccc3c(=O)[nH]2)C(=O)c2ccco2)cc1 76.1%, CCC(C(=O)N1CCN(C)CC1)n1cnc2c(sc3ncccc32)c1=O (stereo not given) 79%, O=c1c2ccccc2nc2c(-c3nc(-c4ccc5c(c4)OCO5)no3)cccn12 114%, COc1ccc2c(c1)CCc1c(-c3nc(-c4ccc(Cl)cc4)no3)n[nH]c1-2 133%, Cc1oc(-c2ccno2)cc1S(=O)(=O)N1CCCc2ccccc21 72.5%, N#Cc1c(NC(=O)CC(=O)CSc2ncnc3sc4c(c23)CCC4)sc2c1CCCC2 94.3%, O=S(=O)(NCc1ccc(-c2nn3cnnc3s2)cc1)c1ccccc1 93.6%, CN1C(=O)C2ON(c3ccccc3)C(c3ccccc3)C2C1=O (stereo not given) 112%, COc1ccc(Cn2c(C)nc3cc(NC(=O)Nc4ccc(Cl)cc4)c(C)nc32)cc1 64.1%, N#Cc1c(/N=C/c2ccccc2O)oc(-c2ccco2)c1-c1ccco1 93.5%, COC(=O)C1=C(NC(=O)COc2ccc3ccccc3c2)CCS1 88.9%, COc1ccc(OC)c2[nH]c(=O)c(CCNC(=O)Cc3cccc(C)c3)cc12 66.1%, O=C(Nc1nc2c(s1)CSc1ccccc1-2)c1coc2ccccc2c1=O 125%, COc1ccc(-c2[nH]c3ccccc3c2SCCNC(C)=O)cc1 80.8%
